What all share (format): cell-based
Assay [1] deals with Staphylococcus aureus ATCC 25923. In words: Broth microdilution MIC. Conditions: ATCC25923, read-out: Minimum Inhibitory Concentrations (MIC). In general terms: In broth dilution the organism is exposed to a series of concentrations in liquid medium.
For the next assay, the system named is HEK293 cells. In words: Cytotoxicity MTS assay. Conditions: Homo sapiens, HEK293, 48 h, read-out: IC50 HEK293. The procedure: The cytotoxic potential of the selected drug candidates was evaluated using the CellTiter 96® AQueous One Solution Cell Proliferation Assay (Promega, Madison, WI, USA), following the manufacturer’s protocol. Human cell lines RPE1 and HEK293 were cultured at 37 °C in a humidified incubator with 5% CO2. Test compounds were dissolved in the appropriate growth medium and serially diluted across a range of concentrations in 96-well microtiter plates. Each well was seeded with 5000 cells and incubated for 48 h under standard culture conditions. Following this incubation period, 20 µL of MTS reagent was added to each well, and the plates were further incubated for 3 h to allow for color development. Absorbance was measured at 490 nm using a microplate reader to determine cell viability. Cytotoxicity was quantified as the half-maximal inhibitory concentration (IC50), defined as the concentration of compound that reduced cell viability by 50%. […] IC50 values were calculated using GraFit 6.0 software by plotting compound concentration against absorbance and fitting the data to a sigmoidal dose–response curve.

Assay [2] relates to Staphylococcus aureus ATCC 25923. As to the kind of experiment: Biofilm inhibition assay (crystal violet). The procedure:
(§1) The ability of the candidate compounds to inhibit biofilm formation was evaluated by determining the minimum biofilm inhibitory concentration (MBIC) against the biofilm-forming strains Staphylococcus aureus ATCC 25923 and Listeria monocytogenes ATCC 7644. Overnight bacterial cultures were diluted in fresh, pre-warmed Mueller–Hinton broth (MHB) and incubated at 37 °C with constant shaking at 220 rpm. Once the cultures reached the exponential growth phase (OD600 = 0.3–0.5), they were standardized to a final concentration of 4 × 10^6 CFU/mL.
Plates were incubated at 37 °C for 24 to 48 h, depending on the bacterial strain. After incubation, the planktonic cells were carefully aspirated to preserve the integrity of the biofilm layer. Wells were gently rinsed with sterile ultrapure Milli-Q water and air-dried at 60 °C for 1 h to fix the biofilms. Biofilm formation was quantified using a crystal violet (CV) staining method. Wells were stained with 100 µL of 0.1% CV solution and incubated at room temperature for 1 h. Excess dye was removed by rinsing with sterile ultrapure Milli-Q water, followed by air-drying. […] The solubilized dye was transferred to a fresh plate, and absorbance was measured at 595 nm using a microplate reader (Bio-Tek EL808, Winooski, VT, USA). Absorbance values were directly proportional to biofilm biomass. […]

The test system of assay [3] is Listeria monocytogenes ATCC 7644. In words: Biofilm inhibition assay (crystal violet). To be noted: ATCC7644, read-out: biofilm inhibition. On the procedure: as §1
Aliquots (50 µL) of the standardized bacterial suspension were inoculated into 96-well microtiter plates containing the test compounds at final concentrations of 100, 50, 25, and 12.5 µg/mL. Plates were incubated at 37 °C for 24 to 48 h, depending on the bacterial strain. After incubation, the planktonic cells were carefully aspirated to preserve the integrity of the biofilm layer. Wells were gently rinsed with sterile ultrapure Milli-Q water and air-dried at 60 °C for 1 h to fix the biofilms. Biofilm formation was quantified using a crystal violet (CV) staining method. Wells were stained with 100 µL of 0.1% CV solution and incubated at room temperature for 1 h. Excess dye was removed by rinsing with sterile ultrapure Milli-Q water, followed by air-drying. Bound CV was solubilized with 100 µL of 70% ethanol and incubated for 30 min. The solubilized dye was transferred to a fresh plate, and absorbance was measured at 595 nm using a microplate reader (Bio-Tek EL808, Winooski, VT, USA). Absorbance values were directly proportional to biofilm biomass. Untreated bacterial cultures served as positive controls for biofilm formation, while sterile MHB served as the negative control.

For the next assay, the system named is RPE1 cells. As to the kind of experiment: Cytotoxicity MTS assay. Conditions: Homo sapiens, RPE-1, 48 h, read-out: IC50 RPE1. On the procedure:
The cytotoxic potential of the selected drug candidates was evaluated using the CellTiter 96® AQueous One Solution Cell Proliferation Assay (Promega, Madison, WI, USA), following the manufacturer’s protocol. Human cell lines RPE1 and HEK293 were cultured at 37 °C in a humidified incubator with 5% CO2. Test compounds were dissolved in the appropriate growth medium and serially diluted across a range of concentrations in 96-well microtiter plates. Each well was seeded with 5000 cells and incubated for 48 h under standard culture conditions. Following this incubation period, 20 µL of MTS reagent was added to each well, and the plates were further incubated for 3 h to allow for color development. Absorbance was measured at 490 nm using a microplate reader to determine cell viability. Cytotoxicity was quantified as the half-maximal inhibitory concentration (IC50), defined as the concentration of compound that reduced cell viability by 50%. Commercial antiseptics cetylpyridinium chloride (CPC) and benzidodecyldimethylammonium bromide (BAB) were included as reference controls. IC50 values were calculated using GraFit 6.0 software by plotting compound concentration against absorbance and fitting the data to a sigmoidal dose–response curve.
Background: Tetrazolium assays rely on reduction of a dye to a coloured formazan, in cell work by metabolically active cells.

The results in this text go back to PMC12473123, “Structure–Function Insights into Quinuclidine-3-One BisQACs: Synthesis, Modulation of Bacterial Resistance, Structure–Activity Relationship, and Biological Profiling” (Pharmaceuticals, 2025).

For orientation: IC50 means the concentration that inhibits the measured activity by half. In general, inhibition refers to the relative decrease from the control value, in per cent. Take `CCCCCCCCCCCCCCCC[n+]1ccccc1` [CPC, cetylpyridinium chloride, reference compound]: in assay [1], the MIC came out at 4 µM. In addition, in the assay with HEK293 cells, the half-inhibitory concentration (IC50) turned out to be 0.8 µM. In assay [2] (S. aureus ATCC 25923, 12.5 µg/mL), this compound yielded a biofilm inhibition above 30%. The compound further returned a biofilm inhibition in assay [2] (S. aureus ATCC 25923, 25 µg/mL) above 70%. In assay [3], the inhibition at 12.5 µg/mL is 15%, the inhibition at 25 µg/mL came out at 19%, the inhibition at 50 µg/mL turned out to be 39% and the inhibition at 100 µg/mL is 45%. Also, the IC50 in the assay on RPE1 cells came out at 3 µM.
